# Measurements taken from PubChem BioAssay AID504467 (National Center for Advancing Translational Sciences (NCATS), 2011).
# The campaign covered roughly 330,000 compounds. About 7,700 (2.3%) were called active. The shares of active, inactive and inconclusive entries below differ from those in the screen. Calls follow the shape of the dose curve; as a rule, active = well fitted inhibition curve with a large enough effect; inconclusive = small, poorly fitted or top-dose-only effect, or effect the other way; inactive = flat fitted curve, though single readings scatter. Potencies beside an inconclusive call are fits to weak or partial responses and may not hold up.
# Test: qHTS screen for small molecules that inhibit ELG1-dependent DNA repair in human embryonic kidney (HEK293T) cells expressing luciferase-tagged ELG1; also: nearly all actives have a fitted effect of over 55% in size
# Conditions: HEK293T ELG1-luciferase reporter, luminescence, 16 h, DNA damage induced by 5-fluorouridine; activity change, negative = inhibition: at 46.1 µM (top of the series)
# Method in brief: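 HEK293T cells expressing luciferase-tagged ELG1 (2,000/well) received 5-Fluorouridine plus compound or DMSO for 16 hr at 37 °C. Luciferase was read by ONE-Glo luminescence after 30 min at room temperature.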
# % is scaled to controls: 0 for no effect and ±100 for the full control effect; potency is read from the fitted curve at half-maximal effect.
Compound,Potency,"activity change, negative = inhibition"
CCOc1cc(C(=O)Nc2ccccc2N2CCN(S(C)(=O)=O)CC2)cc(OCC)c1OCC,"inconclusive: 9.2 µM [inhibitor, partial curve]",
COCCn1c(C)cc(C(=O)CSc2ncn[nH]2)c1C,"inconclusive: 9.2 µM [activator, partial curve]",
CC(C)(CC(=O)OCC(=O)Nc1ccccc1F)CC1=NS(=O)(=O)c2ccccc2N1,active: 9.2 µM,
O=C(Cn1cnc2c(oc3nc4c(cc32)CCCC4)c1=O)Nc1ccccc1,,inactive: 15%
O=C(N/N=C/c1ccc(-c2cccc([N+](=O)[O-])c2)o1)[C@H]1C[C@@H]1c1ccccc1,"inconclusive: 32.6 µM [inhibitor, single point]",
COc1ccc(/C=N/Nc2nonc2N)cc1,"inconclusive: 20.6 µM [activator, single point]",
COc1ccc(Sc2ccc(-c3nc4cnccn4c3NC3CCCCC3)cc2OC)cc1,"inconclusive: 16.4 µM [inhibitor, partial curve]",
Cc1cc(-c2ccc(C)c(S(=O)(=O)N3CC(=O)Nc4ccccc43)c2)on1,"inconclusive: 29.1 µM [activator, partial curve, poor fit]",
Cc1ccc2ncccc2c1NC(=S)NC(=O)c1ccccc1,,inactive: -28.1%
NC1=NC(c2ccc(F)cc2)n2c(nc3ccccc32)N1 (centres undefined),,inactive: 10.7%
CCOc1ccc(NC(=S)NNc2ccnc3cc(Cl)ccc23)cc1,active: 23.1 µM,
CCOC(=O)c1cc(-c2ccc(C#N)cc2)nc2c1c(C)nn2CCC#N,"inconclusive: 6.51 µM [inhibitor, single point]",
Oc1[nH]c2ccc(Br)cc2c1N=Nc1ccc(C(F)(F)F)cn1,,inactive: 5.23%
COc1ccc(C(=O)c2coc3c2C(=O)C(=O)c2ccccc2-3)cc1,"inconclusive: 4.61 µM [activator, full curve]",
CN(C)c1ccc(N/C=C/C(=O)c2ccc(F)cc2)cc1,"inconclusive: 1.46 µM [activator, partial curve]",
COc1cc2cc(CCCOC(=O)c3ccco3)oc(=O)c2cc1OC,"inconclusive: 14.6 µM [inhibitor, partial curve, poor fit]",
Cc1cc(NC(=O)CSCC(=O)Nc2ccccc2Oc2ccccc2)no1,,inactive: 0%
CC(=O)c1cccc(NC(=O)c2cc(-c3ccco3)nc3ccccc23)c1,"inconclusive: 23.1 µM [inhibitor, partial curve]",
CCC(Sc1nc2ccccc2c(=O)[nH]1)C(=O)Nc1ccc(C(C)=O)cc1 (centres undefined),"inconclusive: 20.6 µM [activator, partial curve]",
C(=C\c1ccncc1)/c1ccccc1,"inconclusive: 11.6 µM [activator, partial curve]",
Cc1nc(N2CCN(c3ccccc3)CC2)nc2c1C(=O)CC(C)C2 (centres undefined),"inconclusive: 18.4 µM [inhibitor, single point]",
Cc1nnsc1S(=O)c1ccc(Br)cc1 (centres undefined),"inconclusive: 25.9 µM [activator, single point]",
CC(=O)c1c(C)[nH]c(C(=O)OC(C)C(=O)Nc2cc(S(=O)(=O)N3CCCCC3)ccc2Cl)c1C (centres undefined),"inconclusive: 20.6 µM [inhibitor, partial curve]",

Compound,Potency,"activity change, negative = inhibition"
Cn1cccc1/C=N/n1c(-c2ccc(C(C)(C)C)cc2)n[nH]c1=S,"inconclusive: 22.4 µM [activator, single point]",
Cc1cccc(C)c1Nc1nnc(SCC(=O)Nc2cc(S(=O)(=O)N3CCCCC3)ccc2Cl)s1,"inconclusive: 32.6 µM [inhibitor, single point]",
CC(C)(C)N1CC(c2nc3ccccc3n2Cc2ccccc2)CC1=O (centres undefined),"inconclusive: 3.66 µM [activator, partial curve, poor fit]",
Cc1cccc(N2CCN(C(=O)C3CCC(CNS(=O)(=O)c4cccs4)CC3)CC2)c1C (centres undefined),active: 9.2 µM,
Cc1ccc(-c2csc3ncnc(SCC(=O)Nc4nnc(C)s4)c23)cc1,,inactive: -1.46%
Cc1ccc2nc(Nc3nc(CSc4nnnn4-c4ccccc4)cc(=O)[nH]3)nc(C)c2c1,,inactive: 3.42%
COCCN1C(=O)c2ccccc2C(C(=O)NCCCN2CCCC2)C1c1c[nH]c2ccccc12 (centres undefined),,inactive: -0.185%
NC(N)=N/N=C/c1ccc(OCc2ccc(Cl)cc2)cc1,"inconclusive: 14.6 µM [activator, partial curve]",
Cc1cccc(OCC(=O)Nc2ccc(NC(=O)c3ccccc3)cc2)c1,,inactive: -5.2%
CC(C)c1cc(C(=O)N2CCCC(CCC(=O)N3CCN(c4ccccn4)CC3)C2)no1 (centres undefined),active: 11.6 µM,
Cc1cc(/C=C2\Cc3ccccc3C2=O)c(C)n1-c1ccccc1,"inconclusive: 1.46 µM [activator, partial curve]",
CCc1ccc(CNC(=O)C2CCN(c3nnc(C)c4c(C)n(-c5ccc(C)cc5)nc34)CC2)cc1,"inconclusive: 20.6 µM [inhibitor, single point]",
CCCCCN(C(=O)CCC(=O)OCCOc1ccccc1)c1c(N)n(CCCC)c(=O)[nH]c1=O,,inactive: 13.9%
CCC(C)NC(=O)CSc1nc2cc3c(cc2c(=O)n1Cc1ccco1)OCO3 (centres undefined),"inconclusive: 16.4 µM [activator, single point]",
Oc1ccc(/C=N/n2c(COc3ccccc3)n[nH]c2=S)c(O)c1,,inactive: 10.9%
CCc1cccc(Nc2c([N+](=O)[O-])cc(C(=O)N3CC(=O)Nc4ccccc43)cc2[N+](=O)[O-])c1,"inconclusive: 29.1 µM [inhibitor, single point]",
COC(=O)c1ccc(C2OCC(C)(C)CO2)cc1,"inconclusive: 23.1 µM [activator, partial curve]",
O=S(=O)(c1cccc(Cl)c1)N1CCN(S(=O)(=O)c2ccc3c(c2)OCCO3)CC1,,inactive: 21.3%
CC1CCCCC1NC(=O)Cn1cc([N+](=O)[O-])ccc1=O (centres undefined),"inconclusive: 35.5 µM [activator, partial curve, poor fit]",
Cc1cccc(C)c1-n1nnnc1C(C)(C)N1CCN(N=O)CC1,,inactive: 2.59%
O=C(c1ccccc1)N1N=C(c2ccccc2)CC1c1ccccc1O (centres undefined),,inactive: -16.5%
Cc1cc(OCC(=O)O/N=C(\N)c2ccccc2)ccc1Cl,"inconclusive: 18.4 µM [activator, single point]",
CNC(=O)C1CC(=O)N(Cc2ccc3c(c2)OCO3)C(=Nc2ccc(OC)cc2)S1 (centres undefined),"inconclusive: 11.6 µM [inhibitor, partial curve, poor fit]",

# 4 records picked at random from the list so far, as already listed:
Compound,Potency,"activity change, negative = inhibition"
Cc1cc(OCC(=O)O/N=C(\N)c2ccccc2)ccc1Cl,"inconclusive: 18.4 µM [activator, single point]",
Cc1cccc(C)c1-n1nnnc1C(C)(C)N1CCN(N=O)CC1,,inactive: 2.59%
COC(=O)c1ccc(C2OCC(C)(C)CO2)cc1,"inconclusive: 23.1 µM [activator, partial curve]",
CCc1ccc(CNC(=O)C2CCN(c3nnc(C)c4c(C)n(-c5ccc(C)cc5)nc34)CC2)cc1,"inconclusive: 20.6 µM [inhibitor, single point]",

# The list goes on:

Compound,Potency,"activity change, negative = inhibition"
CCn1c(=O)cc(SCC(=O)NCCN2CCN(Cc3ccccc3)CC2)c2ccccc21,"inconclusive: 10.3 µM [activator, partial curve]",
CCC(C(=O)OC)n1cnc2c(cnn2-c2ccc(Cl)cc2)c1=O (centres undefined),"inconclusive: 20.6 µM [inhibitor, partial curve, poor fit]",
COc1ccc(NCc2nnc(SCC(=O)c3ccc(OC)cc3)n2C)cc1,"inconclusive: 32.6 µM [inhibitor, single point]",
O=C(Nc1ncc([N+](=O)[O-])s1)C1CCN(S(=O)(=O)c2cnc[nH]2)CC1,"inconclusive: 18.4 µM [activator, partial curve]",
COC(=O)/C(=C1/Oc2cc3c(cc2S1)OCO3)C(F)(F)F,"inconclusive: 3.16 µM [activator, full curve]",
Nc1c(C(=O)CSc2ccccn2)c(=O)[nH]c(=O)n1C1CC1,"inconclusive: 20.6 µM [activator, partial curve]",
CCOc1ccc(NC(=O)CN2CCN(CC(=O)Nc3ccccc3OC)CC2)cc1,"inconclusive: 25.9 µM [inhibitor, single point]",
O=C(Nc1nnc(S(=O)(=O)N2CCCCCC2)s1)c1ccccc1F,,inactive: 17.2%
COc1ccccc1N1CCN(C(=O)c2ccc(CS(=O)(=O)c3ccccc3OC)o2)CC1,"inconclusive: 20 µM [inhibitor, single point]",
COc1cccc(NC(=O)CN(C)C(=O)c2ccc(S(=O)(=O)Nc3ccccc3C)cc2)c1,"inconclusive: 29.1 µM [inhibitor, single point]",
O=C(c1cn(-c2ccccc2)nc1-c1cccc([N+](=O)[O-])c1)N1CCCCC1,"inconclusive: 29.1 µM [inhibitor, single point]",
CCOCCCn1c(=NC(C)=O)c(C#N)cc2c(=O)n3ccccc3nc21,,inactive: 0%
CCOC(=O)N1CCN(C(=O)COc2cc(=O)n(CC)c3ccccc23)CC1,"inconclusive: 16.4 µM [activator, partial curve, poor fit]",
CCCCCCc1cc2cc(C(=O)Nc3ccc(OC)cc3)c(=O)oc2cc1O,"inconclusive: 1.84 µM [inhibitor, partial curve]",
Cc1cc(N/N=C/c2ccccc2O)nc(-c2ccccc2O)n1,"inconclusive: 32.6 µM [inhibitor, single point]",
CCC1=Nc2cc(C(=O)NCC3CCCO3)ccc2Sc2ccc(Cl)cc21 (centres undefined),"inconclusive: 8.2 µM [inhibitor, partial curve, poor fit]",
Cc1cccnc1NC(=S)NCc1ccco1,,inactive: 4.13%
COc1cccc(C(=O)NC2CCN(CC(=O)Nc3cccc(C)c3C)CC2)c1,,inactive: -12.9%
CCOC(=O)c1c(NC(=O)CSc2nnc(CNc3ccc(Cl)cc3)o2)sc(C)c1C,,inactive: -25.1%
O=C(Nc1ccccc1O)c1ccc(Cl)cc1,"inconclusive: 10.3 µM [activator, partial curve, poor fit]",
Cc1ccc(C(=O)N2CCN(S(=O)(=O)c3ccc(Br)cc3)CC2)o1,,inactive: -2.41%
Cc1cccc(/C=N/n2c(-c3ccco3)n[nH]c2=S)c1,,inactive: -0.324%
COc1ccc(CNC(=O)CSc2nc(-c3ccccc3)cc(-c3cccs3)c2C#N)cc1,"inconclusive: 20.6 µM [activator, single point]",
